This note sets out measurements from PubChem BioAssay AID328 (DTP/NCI, 2004).

This assay concerns BDF1 mice, P388 leukemia ip, median survival T/C. The experiment in a line: NCI In Vivo Anticancer Drug Screen. Data for tumor model P388 Leukemia (intraperitoneal) in B6D2F1 (BDF1) mice. Conditions: T/C endpoint: median survival time, higher T/C = longer survival. In a few lines:
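Transplantable tumour in mice; compound vs vehicle dosing; survival scored; ratio of treated to control reported.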

Setting [1] is: dose: 50.0 mg/kg/injection, schedule: Q01DX009 (ip), vehicle: saline.
Where [2] appears, read: dose: 100.0 mg/kg/injection, schedule: Q01DX009 (ip), vehicle: saline with Tween-80.
Setting [3] is: dose: 200.0 mg/kg/injection, schedule: Q01DX009 (ip), vehicle: saline with Tween-80.
Setting [4] is: dose: 200.0 mg/kg/injection, schedule: Q01DX009 (ip), vehicle: Klucel (hydroxypropylcellulose) (HPC).
The mark [5] stands for this setting: dose: 6.0 mg/kg/injection, schedule: Q01DX009 (ip), vehicle: saline + alcohol.
Where [6] appears, read: dose: 50.0 mg/kg/injection, schedule: Q01DX009 (ip), vehicle: saline with Tween-80.
[7] abbreviates: dose: 400.0 mg/kg/injection, schedule: Q04DX003 (ip), vehicle: Klucel (hydroxypropylcellulose) (HPC).

The list is a part of this screen's results and no random one: it gathers tests that were run many times, whatever their T/C, doses with no T/C, and many T/C values between a quarter and a half above the control. Further doses and runs are listed elsewhere. T/C gives the treated animals as a percentage of the vehicle group. Some doses have a count of surviving animals in place of a T/C: the source holds a T/C of zero for them, seemingly a mark for toxic or unscored doses. Some survivor counts are full or nearly so, which does not show that the dose was tolerated: the source hardly ever lists a survival T/C far under the control, and the zero likely stands for such cases as well. Survivors were counted at the toxicity check, usually on the fifth day, unless a day is given; later deaths do not show. Schedule codes are those of the source, read here as Q, the interval in days (D) or hours (H), X, the number of doses. Some entries hold several experiments; the results are listed from low to high. Where survival is the endpoint, this PubChem deposit counts one and a half times the control or more as active, and values a quarter to a half above the control carry no call in these data; other NCI protocols may use other cut-offs. Starred links: 1 amine or outer side, 2 acyl side, 3 side chain; linkers in the order of their positions; H or OH if unused. Positions of bridges follow the written chain, without caps; N, C: chain ends. Non-standard residues stand in square brackets, D forms with d. Residues, ends and D or L forms follow the SMILES beside them. Chains are numbered I, II in the order given. ξ: configuration not given here. Actinocin(9to1) = Cc1c2oc3c(C)ccc(C(=O)[*:1])c3nc-2c(C(=O)[*:2])c(N)c1=O; ξPro(4ξ-Me) = CC1CNC(C(=O)O)C1; NMeV = CN[CH](C(=O)O)C(C)C; Sar = CNCC(=O)O

Take `COc1ccc(OC)c(/C=C/c2ccc3ccccc3n2)c1`: the survivor count (dose: 200.0 mg/kg/injection, schedule: Q04DX003 (ip), vehicle: saline with Tween-80) is 6 of 6.
In the case of `COC1OC(CO)C(O)C(O)C1O` (configuration not stated), the survivor count under setting [1] is recorded as 6 of 6.
For the molecule `COc1cc(NC(C)CCCN)c2ncccc2c1Oc1ccc(Cl)cc1` (configuration not stated), the survivor count is 2 of 6 under setting [2] and 0 of 6 under setting [3].
Regarding `C[C@]12CCC(=O)C=C1CC[C@@H]1[C@@H]2C(=O)C[C@]2(C)C3=CC(=O)O[C@H]3C[C@@H]12`, the survivor count under setting [4] is 2 of 6 and the survivor count (dose: 400.0 mg/kg/injection, schedule: Q01DX009 (ip), vehicle: Klucel (hydroxypropylcellulose) (HPC)) is 0 of 6.
With `Cc1c2oc3c(C)ccc(C(=O)NC4C(=O)NC(C(C)C)C(=O)N5CC(C)CC5C(=O)N(C)CC(=O)N(C)C(C(C)C)C(=O)OC4C)c3nc-2c(C(=O)NC2C(=O)NC(C(C)C)C(=O)N3CC(C)CC3C(=O)N(C)CC(=O)N(C)C(C(C)C)C(=O)OC2C)c(N)c1=O` (configuration not stated) (I: TV[ξPro(4ξ-Me)][Sar][NMeV] / II: TV[ξPro(4ξ-Me)][Sar][NMeV]; ester I:1-I:C, II:1-II:C; linker I:N-II:N via Actinocin(9to1); configuration not given here), the survivor count runs as follows: (dose: 1.3 mg/kg/injection, schedule: Q01DX009 (ip), vehicle: saline + alcohol) 8 of 8; (dose: 2.16 mg/kg/injection, schedule: Q01DX009 (ip), vehicle: saline + alcohol) 6 of 8; (dose: 3.6 mg/kg/injection, schedule: Q01DX009 (ip), vehicle: saline + alcohol) 6 of 8; under setting [5], 5 of 8; (dose: 9.0 mg/kg/injection, schedule: Q04DX003 (ip), vehicle: saline + alcohol) 8 of 8; (dose: 15.0 mg/kg/injection, schedule: Q04DX003 (ip), vehicle: saline + alcohol) 0 of 8 and 4 of 8. Besides, the T/C is 147 % of control (dose: 3.24 mg/kg/injection, schedule: Q04DX003 (ip), vehicle: saline + alcohol); 133 % of control (dose: 5.4 mg/kg/injection, schedule: Q04DX003 (ip), vehicle: saline + alcohol); 131 % of control under setting [5]; 142 % of control (dose: 173.0 micrograms/kg/injection, schedule: Q01DX009 (ip), vehicle: saline + alcohol); 145 % of control (dose: 864.0 micrograms/kg/injection, schedule: Q04DX003 (ip), vehicle: saline + alcohol); 127 % of control (dose: 2400.0 micrograms/kg/injection, schedule: Q04DX003 (ip), vehicle: saline + alcohol).
As for `CC(O)CN(CCN(CC(C)O)CC(C)O)CC(C)O.[Cl-].[Co+2]` (configuration not stated), the T/C runs as follows: (dose: 25.0 mg/kg/injection, schedule: Q01DX009 (ip), vehicle: saline) 126 % of control; under setting [1], 137 % of control.
For `OC(CC1CCCCN1)c1ccccc1` (configuration not stated), the survivor count under setting [2] is reported as 1 of 6 and the survivor count under setting [3] is 0 of 6.
Regarding `Cc1cc(-c2ccccc2)nnc1NCCN1CCOCC1`, the survivor count was 2 of 6 under setting [6], 0 of 6 under setting [2] and 0 of 6 under setting [3].
Turning to `O/C(=C\C(=S)S)c1ccc(Cl)cc1`, the T/C (dose: 1.56 mg/kg/injection, schedule: Q04DX003 (ip), vehicle: saline with Tween-80) was 127 % of control. For the same molecule, the survivor count (dose: 12.5 mg/kg/injection, schedule: Q04DX003 (ip), vehicle: saline with Tween-80) was 0 of 6.
Take `COc1cc(C(C)(C)C)cc(OC)c1C(O)(c1c(OC)cc(C(C)(C)C)cc1OC)c1c(OC)cc(C(C)(C)C)cc1OC`: the T/C by setting is: under setting [6], 140 % of control; under setting [2], 147 % of control. Further, under setting [3], the survivor count is given as 5 of 6.
Regarding `CCOC(=O)c1[nH]c(C)nc1/N=N/N(C)C`, the T/C under setting [1] is 131 % of control; the T/C (dose: 100.0 mg/kg/injection, schedule: Q01DX009 (ip), vehicle: saline) is 127 and 133 % of control.
For `O=[N+]([O-])c1ccc(S(=O)(=O)c2ccc([N+](=O)[O-])cc2)cc1`, under “dose: 100.0 mg/kg/injection, schedule: Q04DX003 (ip), vehicle: saline with Tween-80”, the survivor count is 6 of 6.
For `CN=S(=O)(OCCCCCCCCCOS(=O)(=NC)c1ccc(C)cc1)c1ccc(C)cc1` (configuration not stated), the T/C is 126 % of control (dose: 25.0 mg/kg/injection, schedule: Q01DX009 (ip), vehicle: saline with Tween-80) and 129 % of control (dose: 50.0 mg/kg/injection, schedule: Q01DX009 (ip), vehicle: saline + alcohol). In addition, the survivor count is, setting by setting: (dose: 100.0 mg/kg/injection, schedule: Q01DX009 (ip), vehicle: saline + alcohol) 6 of 6; under setting [2], 6 of 6; (dose: 200.0 mg/kg/injection, schedule: Q01DX009 (ip), vehicle: saline + alcohol) 0 of 6.
As for `C=CCN(CC=C)c1ncnc2[nH]ncc12`, the survivor count reads like this: under setting [3], 4 of 6; (dose: 400.0 mg/kg/injection, schedule: Q01DX009 (ip), vehicle: saline with Tween-80) 4 of 6.
For `CS(C)=O.CS(C)=O.[Cl][Sn]([Cl])([Cl])[Cl]`, the survivor count reads like this: (dose: 225.0 mg/kg/injection, schedule: Q01DX009 (ip), vehicle: Klucel (hydroxypropylcellulose) (HPC)) 4 of 6; (dose: 340.0 mg/kg/injection, schedule: Q01DX009 (ip), vehicle: Klucel (hydroxypropylcellulose) (HPC)) 3 of 6; under setting [7], 6 of 6.
Take `CCc1cc(CC)n2cnnc2n1`: the survivor count (dose: 200.0 mg/kg/injection, schedule: Q01DX009 (ip), vehicle: saline) is 0 of 6.
Take `CC(C)OC(=S)SSc1nc2ccccc2s1`: the T/C (dose: 37.5 mg/kg/injection, schedule: Q01DX009 (ip), vehicle: saline) is 125 % of control. In addition, the survivor count is listed as 6 of 6 (dose: 150.0 mg/kg/injection, schedule: Q01DX009 (ip), vehicle: saline with Tween-80) and 2 of 6 (dose: 300.0 mg/kg/injection, schedule: Q01DX009 (ip), vehicle: saline with Tween-80).
As for `CCCCCCCCCCNc1ccc(NCCCCCCCCCC)cc1`, the survivor count under setting [4] is 5 of 6. In addition, the T/C is, setting by setting: (dose: 200.0 mg/kg/injection, schedule: Q04DX003 (ip), vehicle: Klucel (hydroxypropylcellulose) (HPC)) 130 % of control; under setting [7], 145 % of control.
As for `CC(=O)OC1C2(CC3N4C(=O)C5(CO)SSC4(CC31O)C(=O)N5C)OC(C)C(C)(C)C2=O` (configuration not stated), the survivor count (dose: 25.0 mg/kg/injection, schedule: Q01DX009 (oral), vehicle: saline) is given as 1 of 6.
`CCCCc1c2c(nn1C(C)=O)C(=O)C=C(Nc1ccccc1)C2=O`: the survivor count (dose: 400.0 mg/kg/injection, schedule: Q04DX003 (ip), vehicle: saline with Tween-80) was 5 of 6.
